Experimental data: PubChem BioAssay AID652272 (Drosophila RNAi Screening Center, 2013)
Purpose: 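Genome-wide knock-down search for components of Hedgehog signalling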 (primary screen). Cells: Drosophila clone 8 (Cl8) cells. Reagents: long dsRNA against Drosophila genes. Measured: 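Plate reader light from a firefly reporter under a ptc promoter fragment that responds to Hedgehog, with Renilla light as transfection reference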. Reading the numbers: firefly Hh reporter signal: higher = more ptc reporter light; Renilla reference signal: higher = more Renilla control light. Rule for the call: 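Called a hit if the two-replicate mean z-score lies below -2 or above +3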. Meaning of the calls: active = hit: reporter lowered or raised; inactive = not a hit.
In all, the deposit lists about 21,000 reagents; below is a random part of those with a known target gene and a result. Of all reagents, 503 (2.4%) got an active call. 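Raw plate light values, not normalised; calls rest on replicate z-scores that were not deposited; hits include reporter decreases as well as increases.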 Entries without a mark were called inactive. Reagents against one gene are numbered here. Names joined by + are all predicted targets of the reagent. The record does not give: the amount of reagent, the time to read-out.

no.	predicted target	reagent no.	firefly Hh reporter signal, replicate 1	firefly Hh reporter signal, replicate 2	firefly Hh reporter signal, replicate 3	Renilla reference signal, replicate 1	Renilla reference signal, replicate 2
1	Golgin245	1	1.46e5	1.14e5		5964	4842
2	CG4630	1	1.08e5	1.14e5		4300	3952
3	Charon	1	69241	37269		3025	1900
4	CG16700	1	65298	1.47e5		1952	6672
5	CG15225	1	1.39e5	59660		3808	5773
6	Amy-p	1	83479	36592		2108	2621
7	iotaTry	1	76512	44968		1910	3681
8	Hasp	1	99221	55216		4418	2768
9	CG13634	1	5.00e5	83708		24002	2486
10	AP-1gamma	1	84418	1.50e5		2763	5719
11	CG3739	1	5.58e5	77698		28288	1882
12	Cyp4g15	1	92336	1.90e5		3670	7960
13	BubR1	1	77943	47716		1683	4858
14	CG43183	1	75926	1.83e5		1556	8675
15	CG9590	1	1.30e5	82460		4189	3360
16	Usp32	1	1.01e5	1.11e5		3452	2906
17	NdufA3	1	96121	3.53e5		2960	10602
18	zyd	1	1.04e5	1.91e5		4272	8594
19	Cyp12e1	1	89648	70033		2936	2362
20	CG17734	1	1.61e5	7.10e5	1.53e5	4949	4994
21	clu	1	1.47e5	63940		4960	2353
22	ProRS-m	1	74848	51376		2245	3440
23	CG4598	1	79996	44891		1945	4042
24	MFS16	1	74922	45744		2112	4935
25	yip7	1	47096	45957		5514	3229
26	piwi	1	74315	46465		3448	2099
27	CG11584	1	1.11e5	3.03e5		1996	12800
28	CG6066	1	1.57e5	1.57e5		5137	4512
29	Nadsyn	1	80632	71037		1351	805
30	Tsp42Ek	1	96948	50300		2296	4016
31	Cpr60D	1	81590	53900		2633	5052
32	Dsp1	1	47914	11046		2924	458
33	CG4953	1	64103	42876		2950	1703
34	CG13010	1	50599	93986		1904	5370
35	Osi12	1	84963	96375		3248	2824
36	EbpIII	1	55632	43575		1193	3907
37	CR17024	1	2.22e5	83324		5860	8199

Next part, starting with the last 8 of the part before.
no.	predicted target	reagent no.	firefly Hh reporter signal, replicate 1	firefly Hh reporter signal, replicate 2	firefly Hh reporter signal, replicate 3	Renilla reference signal, replicate 1	Renilla reference signal, replicate 2
30	Tsp42Ek	1	96948	50300		2296	4016
31	Cpr60D	1	81590	53900		2633	5052
32	Dsp1	1	47914	11046		2924	458
33	CG4953	1	64103	42876		2950	1703
34	CG13010	1	50599	93986		1904	5370
35	Osi12	1	84963	96375		3248	2824
36	EbpIII	1	55632	43575		1193	3907
37	CR17024	1	2.22e5	83324		5860	8199
38	CG9822	1	85309	79074		1639	5388
39	CG6765	1	20038	59415		3389	4354
40	Nrx-IV	1	1.10e5	68677		4295	2931
41	MED20	1	60978	30582		1952	3173
42	retinin	1	95075			4584	2737
43	Atat	1	69808	34912		3607	1466
44	Cdc37	1	54852	39225		2193	3362
45	Acox3	1	63301	21528		1019	2784
46	ng1	1	92816	2.83e5		3383	9030
47	Alms1b + Alms1a	1	1.00e5	91659		283	2364
48	SamDC	1	1.35e5	75729		5084	3226
49	Gal	1	1.08e5	49461		2968	4787
50	Etl1	1	84256	56968		3267	2787
51	BORCS7 + CG13430	1	86736	63532		3973	2664
52	BORCS7 + CG13430	2	77148	47856		2250	3042
53	CG7208	1	6.75e5	82185		32962	2134
54	wech	1	1.17e5	84663		4964	2560
55	Ccp84Ae	1	1.15e5	7.83e5	1.33e5	4332	6496
56	CG10405	1	96841	88906		4119	2042
57	CG11663	1	48119	92536		1356	4027
